# Assay results from the supplement of paper PMC6411743.
# Protein sequences, listed by entry. Tags and fused reporters are not part of them. Lines headed by an entry give the natural chain unless they say otherwise; changes in a name come on top.
# UniProt Q96A49: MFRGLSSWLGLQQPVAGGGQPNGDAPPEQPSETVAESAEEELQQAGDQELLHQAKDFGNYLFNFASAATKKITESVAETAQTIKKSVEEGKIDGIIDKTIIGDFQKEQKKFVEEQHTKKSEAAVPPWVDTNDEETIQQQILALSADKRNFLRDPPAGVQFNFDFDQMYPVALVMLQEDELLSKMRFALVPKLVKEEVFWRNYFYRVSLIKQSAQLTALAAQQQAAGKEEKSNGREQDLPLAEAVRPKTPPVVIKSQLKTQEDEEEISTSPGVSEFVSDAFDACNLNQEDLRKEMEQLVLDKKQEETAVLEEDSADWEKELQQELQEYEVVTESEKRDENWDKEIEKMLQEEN
# UniProt Q8WWC4: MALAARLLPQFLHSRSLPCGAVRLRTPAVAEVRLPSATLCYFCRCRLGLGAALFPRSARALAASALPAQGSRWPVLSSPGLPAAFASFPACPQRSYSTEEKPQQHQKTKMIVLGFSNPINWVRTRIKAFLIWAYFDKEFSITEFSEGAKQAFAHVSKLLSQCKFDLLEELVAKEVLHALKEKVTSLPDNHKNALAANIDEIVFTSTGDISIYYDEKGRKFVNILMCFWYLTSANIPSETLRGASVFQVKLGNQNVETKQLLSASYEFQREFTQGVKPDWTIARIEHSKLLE
# UniProt Q92738: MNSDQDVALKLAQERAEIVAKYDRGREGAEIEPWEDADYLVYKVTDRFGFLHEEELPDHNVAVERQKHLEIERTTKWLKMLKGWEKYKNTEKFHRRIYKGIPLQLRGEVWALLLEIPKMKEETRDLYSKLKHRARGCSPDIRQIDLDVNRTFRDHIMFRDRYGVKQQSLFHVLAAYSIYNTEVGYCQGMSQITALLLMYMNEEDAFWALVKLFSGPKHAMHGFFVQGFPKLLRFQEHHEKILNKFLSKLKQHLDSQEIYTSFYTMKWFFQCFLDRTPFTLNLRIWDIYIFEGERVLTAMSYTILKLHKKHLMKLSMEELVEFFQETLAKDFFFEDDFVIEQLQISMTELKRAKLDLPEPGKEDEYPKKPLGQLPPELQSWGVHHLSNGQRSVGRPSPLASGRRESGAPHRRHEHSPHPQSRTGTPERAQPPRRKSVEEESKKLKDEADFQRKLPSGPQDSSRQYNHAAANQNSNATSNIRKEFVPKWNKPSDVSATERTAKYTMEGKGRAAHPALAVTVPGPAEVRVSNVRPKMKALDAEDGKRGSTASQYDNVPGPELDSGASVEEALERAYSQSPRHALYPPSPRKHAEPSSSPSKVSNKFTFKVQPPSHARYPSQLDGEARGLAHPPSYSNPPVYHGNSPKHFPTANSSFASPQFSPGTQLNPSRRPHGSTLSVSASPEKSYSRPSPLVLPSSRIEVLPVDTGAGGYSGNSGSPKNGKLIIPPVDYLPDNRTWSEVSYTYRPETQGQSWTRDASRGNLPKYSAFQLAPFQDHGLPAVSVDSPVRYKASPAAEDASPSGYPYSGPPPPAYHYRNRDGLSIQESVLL
# UniProt Q8WU10: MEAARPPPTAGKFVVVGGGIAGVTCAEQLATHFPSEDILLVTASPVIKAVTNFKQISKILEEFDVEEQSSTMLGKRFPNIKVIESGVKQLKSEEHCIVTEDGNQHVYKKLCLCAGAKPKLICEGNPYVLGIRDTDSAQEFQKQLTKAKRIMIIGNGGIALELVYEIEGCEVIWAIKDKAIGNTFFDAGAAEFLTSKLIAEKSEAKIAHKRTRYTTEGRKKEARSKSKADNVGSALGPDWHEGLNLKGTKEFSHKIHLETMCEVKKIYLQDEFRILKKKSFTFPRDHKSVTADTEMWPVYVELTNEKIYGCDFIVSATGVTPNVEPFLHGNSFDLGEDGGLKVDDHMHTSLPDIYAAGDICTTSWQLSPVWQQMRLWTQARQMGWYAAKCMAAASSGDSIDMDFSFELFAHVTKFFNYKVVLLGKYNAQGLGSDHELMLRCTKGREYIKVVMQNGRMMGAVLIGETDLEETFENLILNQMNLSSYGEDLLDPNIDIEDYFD
# UniProt Q8WUF8: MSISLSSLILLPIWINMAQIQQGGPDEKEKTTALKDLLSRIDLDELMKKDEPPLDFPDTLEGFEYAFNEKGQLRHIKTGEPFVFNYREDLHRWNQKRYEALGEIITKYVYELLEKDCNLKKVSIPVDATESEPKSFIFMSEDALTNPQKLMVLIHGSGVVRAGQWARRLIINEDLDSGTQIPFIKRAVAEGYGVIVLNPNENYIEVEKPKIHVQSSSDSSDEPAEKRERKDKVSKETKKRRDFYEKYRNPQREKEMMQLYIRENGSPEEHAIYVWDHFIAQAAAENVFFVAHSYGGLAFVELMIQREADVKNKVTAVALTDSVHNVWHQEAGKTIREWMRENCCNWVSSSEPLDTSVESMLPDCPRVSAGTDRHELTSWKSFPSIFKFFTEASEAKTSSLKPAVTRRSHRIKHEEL
# UniProt Q96AQ8: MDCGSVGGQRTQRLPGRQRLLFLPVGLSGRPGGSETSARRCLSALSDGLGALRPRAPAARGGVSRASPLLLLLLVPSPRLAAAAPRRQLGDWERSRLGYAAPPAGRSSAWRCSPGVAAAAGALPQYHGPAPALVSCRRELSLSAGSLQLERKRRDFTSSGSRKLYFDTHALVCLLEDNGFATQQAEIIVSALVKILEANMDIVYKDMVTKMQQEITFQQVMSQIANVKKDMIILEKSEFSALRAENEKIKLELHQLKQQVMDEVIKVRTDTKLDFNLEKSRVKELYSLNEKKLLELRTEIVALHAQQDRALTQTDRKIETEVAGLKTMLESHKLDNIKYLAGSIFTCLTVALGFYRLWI
# UniProt Q8WTW3: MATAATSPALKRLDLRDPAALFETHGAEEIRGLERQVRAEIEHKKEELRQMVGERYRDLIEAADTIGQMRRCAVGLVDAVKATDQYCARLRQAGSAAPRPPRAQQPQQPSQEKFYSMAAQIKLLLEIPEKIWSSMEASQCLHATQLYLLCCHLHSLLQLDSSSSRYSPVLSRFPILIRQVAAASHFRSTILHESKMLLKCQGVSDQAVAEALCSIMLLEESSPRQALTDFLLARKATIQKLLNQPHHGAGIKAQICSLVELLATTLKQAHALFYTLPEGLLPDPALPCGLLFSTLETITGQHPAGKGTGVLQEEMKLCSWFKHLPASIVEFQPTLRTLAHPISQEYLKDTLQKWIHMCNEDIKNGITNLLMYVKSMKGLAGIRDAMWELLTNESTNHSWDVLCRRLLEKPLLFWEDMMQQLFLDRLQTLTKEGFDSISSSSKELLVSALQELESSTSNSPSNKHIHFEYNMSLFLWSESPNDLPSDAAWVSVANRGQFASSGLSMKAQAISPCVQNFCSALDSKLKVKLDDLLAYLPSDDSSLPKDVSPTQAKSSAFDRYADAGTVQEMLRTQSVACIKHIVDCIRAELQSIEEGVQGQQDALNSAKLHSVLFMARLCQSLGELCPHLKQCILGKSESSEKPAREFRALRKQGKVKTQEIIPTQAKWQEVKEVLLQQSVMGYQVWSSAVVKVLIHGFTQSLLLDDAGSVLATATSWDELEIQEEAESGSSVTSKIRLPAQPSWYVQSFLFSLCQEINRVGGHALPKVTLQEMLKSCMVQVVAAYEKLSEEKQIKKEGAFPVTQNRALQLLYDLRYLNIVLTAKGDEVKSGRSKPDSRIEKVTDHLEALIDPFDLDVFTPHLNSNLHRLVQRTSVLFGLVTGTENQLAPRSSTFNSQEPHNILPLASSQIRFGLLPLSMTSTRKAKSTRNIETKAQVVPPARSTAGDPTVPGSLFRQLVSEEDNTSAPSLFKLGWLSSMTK
# UniProt Q92562: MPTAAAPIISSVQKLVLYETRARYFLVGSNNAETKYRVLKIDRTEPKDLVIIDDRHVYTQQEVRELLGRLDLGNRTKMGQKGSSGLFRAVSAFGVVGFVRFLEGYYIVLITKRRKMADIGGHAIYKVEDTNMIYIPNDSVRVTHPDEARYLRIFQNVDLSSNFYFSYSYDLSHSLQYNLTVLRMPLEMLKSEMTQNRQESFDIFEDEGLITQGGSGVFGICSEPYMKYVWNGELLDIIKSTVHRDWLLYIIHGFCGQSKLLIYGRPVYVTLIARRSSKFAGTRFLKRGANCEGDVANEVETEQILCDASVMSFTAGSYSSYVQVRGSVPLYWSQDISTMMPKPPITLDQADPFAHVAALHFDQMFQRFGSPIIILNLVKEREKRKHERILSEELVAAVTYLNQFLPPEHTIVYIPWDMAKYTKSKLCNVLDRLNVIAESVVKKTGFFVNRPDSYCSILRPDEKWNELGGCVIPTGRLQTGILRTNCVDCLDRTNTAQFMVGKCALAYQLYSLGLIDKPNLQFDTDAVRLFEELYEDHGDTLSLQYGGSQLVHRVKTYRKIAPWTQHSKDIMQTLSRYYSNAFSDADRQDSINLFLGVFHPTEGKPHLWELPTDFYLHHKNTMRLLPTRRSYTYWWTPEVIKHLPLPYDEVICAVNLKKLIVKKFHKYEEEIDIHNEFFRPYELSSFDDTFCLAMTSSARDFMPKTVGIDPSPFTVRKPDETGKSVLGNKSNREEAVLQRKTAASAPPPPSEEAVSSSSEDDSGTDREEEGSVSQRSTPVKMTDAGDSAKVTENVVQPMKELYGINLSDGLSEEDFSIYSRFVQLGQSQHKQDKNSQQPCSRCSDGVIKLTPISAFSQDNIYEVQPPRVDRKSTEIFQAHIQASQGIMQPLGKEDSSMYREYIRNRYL
# UniProt Q8WUA4: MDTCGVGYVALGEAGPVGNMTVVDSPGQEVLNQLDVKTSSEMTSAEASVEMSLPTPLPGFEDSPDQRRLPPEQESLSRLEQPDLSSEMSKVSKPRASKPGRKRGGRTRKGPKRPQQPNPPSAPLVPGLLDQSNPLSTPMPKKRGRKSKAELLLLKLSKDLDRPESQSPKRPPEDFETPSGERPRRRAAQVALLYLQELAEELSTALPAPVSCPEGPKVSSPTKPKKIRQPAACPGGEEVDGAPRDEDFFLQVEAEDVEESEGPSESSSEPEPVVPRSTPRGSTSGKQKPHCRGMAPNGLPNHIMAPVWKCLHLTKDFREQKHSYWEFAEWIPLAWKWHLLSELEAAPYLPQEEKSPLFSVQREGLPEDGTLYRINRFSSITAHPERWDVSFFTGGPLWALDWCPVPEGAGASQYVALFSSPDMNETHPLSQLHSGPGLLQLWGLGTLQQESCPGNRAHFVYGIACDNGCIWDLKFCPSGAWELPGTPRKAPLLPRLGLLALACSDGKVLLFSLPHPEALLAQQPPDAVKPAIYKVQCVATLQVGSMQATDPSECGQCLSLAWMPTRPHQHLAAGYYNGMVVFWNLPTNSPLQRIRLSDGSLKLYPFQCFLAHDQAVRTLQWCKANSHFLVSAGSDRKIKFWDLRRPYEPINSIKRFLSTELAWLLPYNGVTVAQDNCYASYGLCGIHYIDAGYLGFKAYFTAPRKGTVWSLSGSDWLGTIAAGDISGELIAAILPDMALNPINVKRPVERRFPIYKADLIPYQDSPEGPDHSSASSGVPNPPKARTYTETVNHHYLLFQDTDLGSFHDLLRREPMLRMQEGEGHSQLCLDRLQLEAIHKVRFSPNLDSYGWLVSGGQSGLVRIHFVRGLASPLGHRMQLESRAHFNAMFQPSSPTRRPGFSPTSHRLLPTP
# UniProt Q92696: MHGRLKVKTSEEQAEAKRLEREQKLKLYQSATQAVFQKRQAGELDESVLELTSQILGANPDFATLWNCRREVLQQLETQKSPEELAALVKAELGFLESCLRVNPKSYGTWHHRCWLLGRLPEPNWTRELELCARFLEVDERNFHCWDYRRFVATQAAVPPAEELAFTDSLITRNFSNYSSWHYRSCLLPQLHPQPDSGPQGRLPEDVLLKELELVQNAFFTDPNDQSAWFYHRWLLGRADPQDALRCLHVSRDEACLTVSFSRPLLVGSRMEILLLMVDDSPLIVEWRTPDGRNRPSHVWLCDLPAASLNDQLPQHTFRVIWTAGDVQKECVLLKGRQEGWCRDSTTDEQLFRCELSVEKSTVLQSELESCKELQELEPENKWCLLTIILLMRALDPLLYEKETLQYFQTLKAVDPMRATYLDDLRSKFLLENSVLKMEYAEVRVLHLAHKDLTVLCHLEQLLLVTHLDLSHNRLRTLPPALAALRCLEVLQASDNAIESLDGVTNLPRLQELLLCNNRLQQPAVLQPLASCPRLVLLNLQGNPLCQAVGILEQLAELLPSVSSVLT
# UniProt Q92685: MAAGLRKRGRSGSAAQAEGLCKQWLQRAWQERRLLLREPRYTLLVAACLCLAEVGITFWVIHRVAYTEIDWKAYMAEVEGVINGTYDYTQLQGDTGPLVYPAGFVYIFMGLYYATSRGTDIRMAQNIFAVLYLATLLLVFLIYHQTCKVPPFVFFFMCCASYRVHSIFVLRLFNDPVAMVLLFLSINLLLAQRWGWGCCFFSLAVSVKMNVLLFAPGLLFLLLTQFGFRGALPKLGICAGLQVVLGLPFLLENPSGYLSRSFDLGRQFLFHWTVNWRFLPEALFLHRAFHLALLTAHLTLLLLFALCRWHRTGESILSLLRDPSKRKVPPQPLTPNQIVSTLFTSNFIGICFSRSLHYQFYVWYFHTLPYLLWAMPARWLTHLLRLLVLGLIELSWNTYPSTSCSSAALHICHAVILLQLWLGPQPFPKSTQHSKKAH
# ± gives the standard deviation of the averaged measurements. The entries are a selection whose mix differs from that of the whole data set. Small differences around the control level are noise.
# Compound: Nc1ncnc2c1ncn2[C@@H]1O[C@H](COP(=O)(O)OP(=O)(O)OP(=O)(O)O)[C@@H](O)[C@H]1O [adenosine triphosphate]
# Assay: NP40-soluble protein abundance relative to vehicle (solubility fold change) (ratio); higher = more soluble protein in presence of ATP
# Details: concentration: 0.1mM
# Summary of the method: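 Crude Jurkat lysate, prepared by Dounce homogenisation, was exposed to eight concentrations from 0.1 to 10 mM for 10 min at room temperature and then 3 min at 37 °C. Solubilisation used 0.8% NP40 with benzonase for 60 min at 4 °C, followed by ultracentrifugation and TMT labelling of the supernatant for LC-MS/MS. After vsn normalisation of intensities, each value is the fold change against the detergent-processed vehicle within each replicate, across three independent experiments.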
row,Target,NP40-soluble protein abundance
1,UniProt Q92845 and related entries,1.015 ± 0.0043
2,UniProt Q8TF05 and related entries,1.08 ± 0.02
3,GPT2 (UniProt Q8TD30),0.925 ± 0.062
4,UniProt Q8WYQ5 and related entries,1.03 ± 0.016
5,SYAP1 (UniProt Q96A49),0.962 ± 0.029
6,UniProt Q8WWC4,1.05 ± 0.091
7,UniProt Q92738 and related entries,1.02 ± 0.13
8,PYROXD1 (UniProt Q8WU10),1.1 ± 0.12
9,UniProt Q8TBB5 and related entries,1.03 ± 0.06
10,UniProt Q8WUW1 and related entries,0.888 ± 0.17
11,PLEKHO2 (UniProt Q8TD55),0.978 ± 0.045
12,EXOSC8 (UniProt Q96B26),1.05 ± 0.03
13,UniProt Q8TCA0 and related entries,0.988 ± 0.026
14,FAM172A (UniProt Q8WUF8),1.04 ± 0.041
15,UniProt Q8WUI4 and related entries,1.02 ± 0.034
16,NT5C3B (UniProt Q969T7),1.02 ± 0.013
17,UniProt Q8WWW0-2,0.972 ± 0.016
18,UniProt Q96AQ8,0.956 ± 0.018
19,COG1 (UniProt Q8WTW3),1.05 ± 0.048
20,FIG4 (UniProt Q92562),1.01 ± 0.19
21,GTF3C2 (UniProt Q8WUA4),0.984 ± 0.043
22,RABGGTA (UniProt Q92696),1.06 ± 0.085
23,ALG3 (UniProt Q92685),1.21 ± 0.22
24,ARPC1A (UniProt Q92747),1.03 ± 0.1
25,ERGIC1 (UniProt Q969X5),1.04 ± 0.073
26,UniProt Q93074 and related entries,1.02 ± 0.054
27,EMG1 (UniProt Q92979),1.07 ± 0.06

# Single entries from the results shown:
# Value for NT5C3B (UniProt Q969T7) under NP40-soluble protein abundance: 1.02 ± 0.013
# Value for UniProt Q8WYQ5 and related entries under NP40-soluble protein abundance: 1.03 ± 0.016
